The supplement of paper PMC10338343
± gives the standard deviation. The entries are a selection whose mix differs from that of the whole data set. Many of these values have a large error. Some of the results follow.

Tests used:
[1] = test system: MILI (PIWIL2) piRISC loaded with L1MC piRNA (26 nt); test: pre-steady-state target cleavage rate (min^-1); higher = faster piRNA-guided slicing of the target; conditions: guide: L1MC piRNA 5'p-UAACUAAAUACUAUGCAAGCUGUAGG
Procedure, shortened: (§1)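 Cleave-'n-Seq measured uncleaved targets by sequencing after a transcribed, DNA-blocked target RNA library […] was mixed with 1 nM active affinity-purified piRISC holding one synthetic guide, with or without 500 nM GTSF1 partner protein, at 33 °C in HEPES–potassium acetate buffer for 0–8 or 0–960 min. Counts were normalised to depth and to weakly complementary targets, three trials were pooled, and k3 was capped at 0.0001 min^-1. A burst-and-steady-state fit gave the pre-steady-state cleavage rate.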

[2] = test system: EfPiwi piRISC loaded with L1MC piRNA (26 nt); test: pre-steady-state target cleavage rate (min^-1); guide: L1MC piRNA 5'p-UAACUAAAUACUAUGCAAGCUGUAGG; higher = faster piRNA-guided slicing of the target
Procedure, shortened: as §1

[3] = test system: MIWI (PIWIL1) piRISC loaded with L1MC piRNA (30 nt); test: pre-steady-state target cleavage rate (min^-1); MIWI and MILI are mouse PIWI proteins and EfPiwi is from a freshwater sponge; tags in brackets are library labels; higher = faster piRNA-guided slicing of the target; conditions: guide: L1MC piRNA 5'p-UAACUAAAUACUAUGCAAGCUGUAGGUCCU; auxiliary factor: none (no GTSF1)
Procedure, shortened: as §1

[4] = auxiliary factor: 500 nM mouse GTSF1
[5] = auxiliary factor: none (no GTSF1)
[6] = auxiliary factor: 500 nM Ephydatia muelleri Gtsf1
[7] = auxiliary factor: none (no Gtsf1)

Row | Sequence | pre-steady-state target cleavage rate [1, 4] | pre-steady-state target cleavage rate [1, 5] | pre-steady-state target cleavage rate [2, 6] | pre-steady-state target cleavage rate [2, 7] | pre-steady-state target cleavage rate [3]
1 | UCCUGGAUGUGCUUGGAUAGUAAUUAGUUA | 0.0687 ± 0.014 | 0.00472 ± 0.0026 | 0.000558 ± 0.0083 | 0.000578 ± 0.015 | 
2 | UCCUGGAAGAGCUUGCAUAGUAUUUACUUA | 0.0737 ± 0.02 | 0.00232 ± 0.0032 | 0.00239 ± 0.0034 | 0.000721 ± 0.013 | 
3 | UCCUGGUACAGCUUGCAUAGUAUUUACUUA | 0.103 ± 0.025 | 0.00236 ± 0.0042 | 0.000778 ± 0.0099 | 0.000796 ± 0.015 | 
4 | UCCUGGUACAGCUUGCAUAGUAUUUUGUUA | 0.118 ± 0.024 | 0.00398 ± 0.0037 | 0.00618 ± 0.003 | 0.00091 ± 0.013 | 
5 | UCCUGGAUGUGCUUGCAUAGAAUUUAGUUA | 0.0203 ± 0.0071 | 0.00245 ± 0.0026 | 0.00167 ± 0.0021 | 0.000669 ± 0.013 | 
6 | UCCUGGAUCUGCUUGCAUAGUAUUUACAAA | 0.104 ± 0.022 | 0.00101 ± 0.0055 | 0.000564 ± 0.0086 | 0.000392 ± 0.014 | 
7 | UCCUGGUAGAGCUUGCAUAGAAUUUAGUUA | 0.0311 ± 0.0054 | 0.0029 ± 0.0032 | 0.00278 ± 0.003 | 0.00193 ± 0.0063 | 
8 | UCCUGCUACUGCUUGCAUAGAAUUUAGUUA | 0.045 ± 0.0093 | 0.00256 ± 0.002 | 0.00563 ± 0.002 | 0.000963 ± 0.0059 | 
9 | UCCUGGAUCAGCUUGCAUAGAAUUUAGUUA | 0.0368 ± 0.0086 | 0.00356 ± 0.002 | 0.00327 ± 0.0015 | 0.000935 ± 0.0083 | 
10 | UCCUGGAUGAGCUUGCAUAGAAUUUAGUUA | 0.0653 ± 0.017 | 0.00227 ± 0.0025 | 0.00142 ± 0.0033 | 0.000788 ± 0.0093 | 
11 | UCCUGGAUCAGCUUGCAAAGUAUUUAGAAA | 0.0827 ± 0.015 | 0.00184 ± 0.0034 | 0.00199 ± 0.0024 | 0.000912 ± 0.0091 | 
12 | UCCUGCAUGAGCUUGCAUAGUAUUUAGUAA | 0.234 ± 0.024 | 0.00554 ± 0.0022 | 0.0061 ± 0.0025 | 0.000271 ± 0.021 | 
13 | UCCUGGAACAGCUUGCAAAGUAAUUAGUUA | 0.131 ± 0.018 | 0.00424 ± 0.0022 | 0.00403 ± 0.002 | 0.00111 ± 0.0073 | 
14 | UCCUGGAUGAGCUUGCUUAGUAUUUAGAAA | 0.0548 ± 0.017 | 0.00171 ± 0.0037 | 0.00188 ± 0.0023 | 0.000275 ± 0.024 | 
15 | UCCUGCAACACCUUGCAUAGUAUUUAGUUA | 0.192 ± 0.026 | 0.00568 ± 0.0027 | 0.0123 ± 0.0034 | 0.00063 ± 0.011 | 
16 | UCCUGGAUGUCGAUGCAUAGAUUUUAGUUA | 0.0015 ± 0.0074 | 0.00123 ± 0.0059 | 0.000206 ± 0.019 | 0.00013 ± 0.05 | 
17 | UCCUGGAUGAGCUUGCAUAGUAUUUGUUA | 0.118 ± 0.028 | 0.00158 ± 0.0045 | 0.00242 ± 0.0028 | 0.000692 ± 0.012 | 
18 | UCCUGGUACAGCUUGCAUAGUAUUUUGAUA | 0.0966 ± 0.025 | 0.00208 ± 0.0056 | 0.00381 ± 0.0026 | 0.00147 ± 0.0079 | 
19 | UCCUGGAACAGCUUGCAUAGUUUUUUGUUA | 0.0493 ± 0.014 | 0.00203 ± 0.0037 | 0.00325 ± 0.0013 | 0.00115 ± 0.0086 | 
20 | UCCUGGAAGAGCUAGCAUAGUAUUUAGUUA | 0.212 ± 0.016 | 0.00677 ± 0.0024 | 0.00727 ± 0.0022 | 0.000927 ± 0.012 | 
21 | UCCUGGAACAGCUUGGAAAGUAUUUAGUUA | 0.125 ± 0.0077 | 0.00969 ± 0.0023 | 0.0164 ± 0.0053 | 0.000238 ± 0.041 | 
22 | UCCUGGAUGUCGUUGCAUAGUAAAAAGUUA | 0.00309 ± 0.0044 | 0.00188 ± 0.0034 | 0.000334 ± 0.011 | 0.000244 ± 0.03 | 
23 | UCCUGCUACAGCAUGCAUAGUAUUUUGUUA | 0.167 ± 0.029 | 0.00333 ± 0.0032 | 0.00422 ± 0.002 | 0.000554 ± 0.0097 | 
24 | UCCUGGAUGUCCUUGCAUGGUAUUUAGUUA | 0.0346 ± 0.011 | 0.00814 ± 0.0026 | 0.00143 ± 0.0035 | 0.000538 ± 0.01 | 
25 | UCCUGGAUCAGCUUGCAUAGUAUAUAGAAA | 0.115 ± 0.03 | 0.00155 ± 0.0043 | 0.00112 ± 0.0038 | 0.000392 ± 0.018 | 0.00267 ± 0.0043
26 | UCCUGGAUGUCCUUGCAUAGUAUUAACUUA | 0.0115 ± 0.0049 | 0.00126 ± 0.0055 | 0.000973 ± 0.0073 | 0.000196 ± 0.029 | 0.00119 ± 0.0066

A second format for part of the listing above:
Row	Sequence	pre-steady-state target cleavage rate [1, 4]	pre-steady-state target cleavage rate [1, 5]	pre-steady-state target cleavage rate [2, 6]	pre-steady-state target cleavage rate [2, 7]	pre-steady-state target cleavage rate [3]
17	UCCUGGAUGAGCUUGCAUAGUAUUUGUUA	0.118 ± 0.028	0.00158 ± 0.0045	0.00242 ± 0.0028	0.000692 ± 0.012	
18	UCCUGGUACAGCUUGCAUAGUAUUUUGAUA	0.0966 ± 0.025	0.00208 ± 0.0056	0.00381 ± 0.0026	0.00147 ± 0.0079	
19	UCCUGGAACAGCUUGCAUAGUUUUUUGUUA	0.0493 ± 0.014	0.00203 ± 0.0037	0.00325 ± 0.0013	0.00115 ± 0.0086	
20	UCCUGGAAGAGCUAGCAUAGUAUUUAGUUA	0.212 ± 0.016	0.00677 ± 0.0024	0.00727 ± 0.0022	0.000927 ± 0.012	
21	UCCUGGAACAGCUUGGAAAGUAUUUAGUUA	0.125 ± 0.0077	0.00969 ± 0.0023	0.0164 ± 0.0053	0.000238 ± 0.041	
22	UCCUGGAUGUCGUUGCAUAGUAAAAAGUUA	0.00309 ± 0.0044	0.00188 ± 0.0034	0.000334 ± 0.011	0.000244 ± 0.03	
23	UCCUGCUACAGCAUGCAUAGUAUUUUGUUA	0.167 ± 0.029	0.00333 ± 0.0032	0.00422 ± 0.002	0.000554 ± 0.0097	
24	UCCUGGAUGUCCUUGCAUGGUAUUUAGUUA	0.0346 ± 0.011	0.00814 ± 0.0026	0.00143 ± 0.0035	0.000538 ± 0.01	
